# Laboratory results as given in article PMC7819943, “Rice protein-binding microarrays: a tool to detect cis-acting elements near promoter regions in rice”.
# Chains of the proteins cited; added tags and fusions are not shown.
# UniProt Q0JBA9, entry or part of it: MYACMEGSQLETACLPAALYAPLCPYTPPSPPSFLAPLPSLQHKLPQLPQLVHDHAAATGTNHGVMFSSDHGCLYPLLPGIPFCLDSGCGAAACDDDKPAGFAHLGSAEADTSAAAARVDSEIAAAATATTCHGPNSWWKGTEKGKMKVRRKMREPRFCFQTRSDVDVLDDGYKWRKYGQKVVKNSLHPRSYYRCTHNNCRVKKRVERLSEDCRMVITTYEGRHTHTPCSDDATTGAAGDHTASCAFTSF
# The list shows a part of the results.
# Molecular target: OsWRKY34 (Oryza sativa, UniProt Q0JBA9 1-250)
# Test: protein-binding microarray (RPBM); PBS, 2% BSA, 51.3 ng/ul salmon testes DNA, 50 uM zinc acetate, 200 nM TF, 25 C, 1 h; high values mean tight binding
# Details: protein: recombinant; tags: N-terminal polyhistidine and DsRed monomer fusion (pET32a); label: CyDye5-dUTP incorporated in the synthesized complementary strand; 3' TTTTT single-stranded linker to array surface; dsDNA, one strand shown
# Outline: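 Binding signal here means per-feature fluorescence intensity in arbitrary units. The values were read on an Axon 4000B scanner after a custom Agilent array, double-stranded by primer extension with Cy5-dUTP, was incubated with 200 nM protein at 25 °C for 1 h in PBS with 2% BSA, salmon testes DNA and 50 µM zinc acetate, then washed. The proteins were transcription factors with an N-terminal polyhistidine tag and DsRed, expressed in E. coli BL21-CodonPlus and purified on Ni–NTA.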
row,Sequence,binding signal
1,CTGTCGCCACCATCCAAACCAAGTATCTCGTGCCTCGCAACGGAGTCACCTAGTGCAG,8680 fluorescence intensity (a.u.)
2,AGTTTCAGTTCAGTTCACCCCACATTTTCATGGCTCATCACGGAGTCACCTAGTGCAG,11300 fluorescence intensity (a.u.)
3,ATCAATCTATTAGAATACTTATTACTGTATCTACTTATGTCGGAGTCACCTAGTGCAG,8690 fluorescence intensity (a.u.)
4,ACTTAAGCTCCGCATAACCATCTCGCCGCCGGCCGAGCCGCGGAGTCACCTAGTGCAG,8280 fluorescence intensity (a.u.)
5,ACACAATTCACGTGCTCCCAACTTCCCAAGTCCACATCACCGGAGTCACCTAGTGCAG,10200 fluorescence intensity (a.u.)
6,GCTTGGCGTCTCTCCTTCCTGGACCGACCCTTTTATTTGTCGGAGTCACCTAGTGCAG,10800 fluorescence intensity (a.u.)
7,CTTCCTTAGTGTGTGTGTATATCTCTCTCTCTCTCTCTCACGGAGTCACCTAGTGCAG,8110 fluorescence intensity (a.u.)
8,ATGTGTTTGTGTGTCTCTGCCACGTTTCGAAAAAACAACTCGGAGTCACCTAGTGCAG,9740 fluorescence intensity (a.u.)
9,ACCCTGGTTTCCGTGTCCAACGTTTGACCATTCGTCTTATCGGAGTCACCTAGTGCAG,12300 fluorescence intensity (a.u.)
10,GCACGCCGTTGTTCATAGTGTTAAGCCTAAGGCCTTGTTTCGGAGTCACCTAGTGCAG,9920 fluorescence intensity (a.u.)
11,TTCCTCTGCCACTGCATCTCGTGCTCACTGGCCCGTTTGCCGGAGTCACCTAGTGCAG,8780 fluorescence intensity (a.u.)
12,GATCTCCCAGGGTTATAATCTTATGATTTTTTCCTGCTCTCGGAGTCACCTAGTGCAG,8340 fluorescence intensity (a.u.)
13,GGAGGTTTTGTCATTTGTGCGCGTGGGGATGCGCGAGTTTCGGAGTCACCTAGTGCAG,11800 fluorescence intensity (a.u.)
14,CAAAGCAACCACACCACTCTCTTTTTTAAGGTACCAATTACGGAGTCACCTAGTGCAG,8040 fluorescence intensity (a.u.)
15,CCACAACACGTTAGCACCTCATCGGCCCAATCTTGAAAGCCGGAGTCACCTAGTGCAG,8620 fluorescence intensity (a.u.)
16,ACACACTGTTCACCTTGCCCTCGCTGCCCCGGCAACTCACCGGAGTCACCTAGTGCAG,8970 fluorescence intensity (a.u.)
17,TCACACCCGTTCCATCCGTCGCGGTTGACCCCGCGCAGCACGGAGTCACCTAGTGCAG,9740 fluorescence intensity (a.u.)
18,ATGGACCGCGGCGGCGACCGCCTCTGCTACGTCCAGTTCCCGGAGTCACCTAGTGCAG,8220 fluorescence intensity (a.u.)
19,CCCCTACAATTTGTTGTTTCTTCTTACAAATTATACTACTCGGAGTCACCTAGTGCAG,11300 fluorescence intensity (a.u.)
20,ATTCCATTATTTATCTTGTTCTTCCATTCCAGGCCTCCAACGGAGTCACCTAGTGCAG,8350 fluorescence intensity (a.u.)
21,TGGAGTGGCTCACGTGCGCGGAGCGAGGCGTGGTTTGACCCGGAGTCACCTAGTGCAG,8630 fluorescence intensity (a.u.)

row,Sequence,binding signal
1,GCGGCGGGGCGGCGGGCGAGGGTTCTGGAGAGCGCGAGCGCGGAGTCACCTAGTGCAG,11800 fluorescence intensity (a.u.)
2,TTGCTCGCAAAACAAATACTGGCCATTAACCCGCAGCATCCGGAGTCACCTAGTGCAG,8640 fluorescence intensity (a.u.)
3,GACCCGCTTCCTCGCCACCGACTACTTCGCGCCGTCCTCCCGGAGTCACCTAGTGCAG,15700 fluorescence intensity (a.u.)
4,ACATGTGGGCCCTACATCCCAGCCGGTCCACGTCGGTTCACGGAGTCACCTAGTGCAG,9390 fluorescence intensity (a.u.)
5,TGTTCTCACTTTTTGCTTCAACACTTGCTTTTGTCACTTCCGGAGTCACCTAGTGCAG,9430 fluorescence intensity (a.u.)
6,CACCGTCTCCGCTCGCCGCGCGCTCCCGCCGCCGCGCAGCCGGAGTCACCTAGTGCAG,8200 fluorescence intensity (a.u.)
7,AGTTCCAGATCTCCCAAGTGCTCCACTACATATTCGTGCACGGAGTCACCTAGTGCAG,9100 fluorescence intensity (a.u.)
8,TAGATTTGTGTCTCTTTGCTTGGTATTGGTCACTCCATCGCGGAGTCACCTAGTGCAG,11800 fluorescence intensity (a.u.)
9,TCCATTTCATTGTTAGGTGTACTTTTATCACTGTCCATCTCGGAGTCACCTAGTGCAG,9090 fluorescence intensity (a.u.)
10,ACGCCATTGACTTTTTAGCAGATGTTTGACCGTTCGTTTTCGGAGTCACCTAGTGCAG,20700 fluorescence intensity (a.u.)
11,ACCAATCTATCCATCTACAATATTTAACCCATACATAAACCGGAGTCACCTAGTGCAG,8140 fluorescence intensity (a.u.)
12,CCTATATTATGCGTCCTGCAGATCTTCTCTAGTTTCCCAACGGAGTCACCTAGTGCAG,8770 fluorescence intensity (a.u.)
13,TTCCGTCGTGGTCATCATTCCAGTGAACTGTTTAGCTGTTCGGAGTCACCTAGTGCAG,10200 fluorescence intensity (a.u.)
14,TTAACCTCGCATTTCTGTACTACGCCCTAAGTTACATTCTCGGAGTCACCTAGTGCAG,8620 fluorescence intensity (a.u.)
15,CACACCTTTTTATATATATATACTCTTCTTTAGCCACAATCGGAGTCACCTAGTGCAG,9600 fluorescence intensity (a.u.)
16,TTCGGGGTGTTCGTCAAAAATGTGGGGAGGAGGCATGGATCGGAGTCACCTAGTGCAG,13100 fluorescence intensity (a.u.)
17,TGAAGCCGCCCCTTATTTTTTGGCTCATTTACACACGAGTCGGAGTCACCTAGTGCAG,11000 fluorescence intensity (a.u.)
18,CCAGGTGAGATGTGTGAGTGGGTTTTGGTGTGAAGGGGTCCGGAGTCACCTAGTGCAG,8230 fluorescence intensity (a.u.)
19,ATCGAGGAAGTCAAATGTGCACCGGTTTTAATAGTTGGGGCGGAGTCACCTAGTGCAG,8640 fluorescence intensity (a.u.)
20,TCTCAGTGGTTGCTTATTTCTTAAATCTTTATCATATCAGCGGAGTCACCTAGTGCAG,11500 fluorescence intensity (a.u.)
21,GCAATTTCTGTGTTTTGCAATCATCTGTTTTACACTTGCACGGAGTCACCTAGTGCAG,10400 fluorescence intensity (a.u.)

# Reprinted from the results shown (two entries):
row,Sequence,binding signal
2,TTGCTCGCAAAACAAATACTGGCCATTAACCCGCAGCATCCGGAGTCACCTAGTGCAG,8640 fluorescence intensity (a.u.)
3,GACCCGCTTCCTCGCCACCGACTACTTCGCGCCGTCCTCCCGGAGTCACCTAGTGCAG,15700 fluorescence intensity (a.u.)
